# Primary screen of a compound library

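Phenotypic screen: M. tuberculosis growth, glucose 7H9 medium, 3 days; the read-out is not stated. Tested at 50 µM. The record gives no direction; compounds that gave an IC50 in retests scored well above the rest, so higher reads as more growth inhibition. Size under these conditions: about 69,000 compounds, about 760 of them at 50% or above in at least one test.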

Each number is a percent effect as filed. The record does not define 0% and 100%; most values in the screen are far below 50% and negative numbers occur (in some assays of this library far below -100). The compounds are a random part of those screened. Two or more numbers in one place are separate tests of the same structure; such repeats can differ widely.

| Compound | effect |
|---|---|
| `COc1ccc2cccc(CC(=O)NCc3n[nH]c(=O)[nH]3)c2c1` | 19.01 |
| `COc1ccnc(N2CCN(Cc3ncc(C(C)(C)C)o3)CC2)n1` | 4.064 and -18.95 |
| `CCc1ncc(C(=O)N(CC)CCOC)cn1` | 20.89 |
| `NC(=O)C1CCN(C(=O)NC2CCN(CC3CCCC3)C2)CC1` (stereo unspecified) | -19.11 and 7.243 |
| `O=C1CC(NS(=O)(=O)c2cccc(F)c2)CN1` (stereo unspecified) | -1.759 |
| `COc1ccnc(N2CCN(CC(=O)N3CCC(C)CC3)CC2)n1` | 18.72 |
| `O=C(c1cnc(-c2noc3cc(N4CCCC4)ccc23)s1)N1CCCC1` | 54.53 and -2.864 |
| `CC(=O)NCC1CCN(c2cc(C)nc(-c3ccncc3)n2)CC1` | 9.592 |
| `COCCCNC(=O)c1cc(OC)c2ccoc2c1` | -26.72 |
| `Cc1sc2c(C3CCNCC3)nc(Nc3cccc(F)c3)n2c1C.Cl` | -27.34 |
| `Cc1cc(F)c(C(C(=O)O)N2CCN(Cc3ccccn3)CC2)cc1Cl` (stereo unspecified) | 11.1 |
| `Cc1cnc(NC(=O)N2CCCC2)s1` | 10.76 |
| `O=C(O)C(F)(F)F.O=C(c1ccccc1)N1CCCC2(CCN2Cc2cccc(F)c2)C1` (stereo unspecified) | -9.853 |
| `C=Cc1ccc(CSc2nc3c(c(=O)[nH]2)CN(CCC)CC3)cc1` | 7.6 and 11.71 |
| `Cn1cncc1CN1CCCC1c1cncc(Oc2ccc(Cl)cc2)n1` (stereo unspecified) | 5.854 |
| `O=c1cnc2ccccc2n1CCCn1ccnc1` | -6.27 |
| `N#Cc1nccnc1NC1CCN(c2ccccc2OC(F)F)C1` (stereo unspecified) | 17.72 and 31.14 |
| `Cc1noc(C2(NC(=O)c3cccnc3O)CCCCC2)n1` | -8.295 |
| `Cc1cnn(CCNc2cnc3ccccc3n2)c1` | 5.619 |
| `Cc1nccn1CCN(C)C(=O)c1cn(CC2CCCCC2)nn1` | -8.008 |
| `COc1cccc(S(=O)(=O)CCN2CCCN(C(C)=O)CC2)c1` | 8.078 |
| `COc1ccc2c(ccn2CCC(=O)Nc2nc[nH]n2)c1` | 29.77 |
| `CCc1noc(CN2CCN(C(=O)OC(C)(C)C)C(C)C2)n1` (stereo unspecified) | 15.69 |
| `COC(=O)CNC(=O)c1cn(Cc2ccccc2F)nn1` | 10.67 |
| `O=C(c1ccno1)N1CCOC[C@H](Oc2ccc(C(F)(F)F)cc2)C1` | -42.37 and 35.9 |
| `Cc1cc(C)cc(OCCCn2nc3ccccn3c2=O)c1` | 34.33 and 22.54 |
| `CCOCC1CN(C(=O)c2cnccn2)Cc2cnn(CC3CC3)c21.O=C(O)C(F)(F)F` (stereo unspecified) | -1.665 |
| `Cn1nc(C(=O)NC2CCCCC2)cc1NC(=O)C1CC1` | 34.89 |
| `CCN(C(=O)c1ccccc1I)C1CC(=O)NC1=O` (stereo unspecified) | 3.571 |
| `CCOCCCn1c(NC(=O)c2ccc(C)nc2)nc2ccccc21` | 3.192 |
| `CC(O)CN1CCN(C(=O)CCOc2ccccc2F)CC1` (stereo unspecified) | -0.4519 |
| `CCS(=O)(=O)NCCCNCc1c(C)nn(C)c1N(C)C` | -30.09 |
| `c1nc(-c2nc(C3CCOC3)no2)cs1` (stereo unspecified) | -10.63 |
| `Cc1ccsc1CCNC(=O)CCC(=O)NC1CCCC1` | 7.372 |
| `CCNC(=O)N1CCC2(CC1)CCn1c(C3CC3)cnc12` | -55.77 and -10.9 |
| `Cc1cc(CN2CCC(CNC(=O)c3cnc(C)nc3C)C2)[nH]n1` (stereo unspecified) | -19.57 and -2.593 |
| `O=C(c1cc[nH]n1)N1CCC(c2nccn2Cc2ccncc2)CC1` | 3.764 |
| `O=S(=O)(c1c(N2CCCCC2)ccc2nonc12)N1CCCCC1` | -10.38 |
| `Cc1ccc2c(c1)C(=O)NCC1(CCN(C(=O)c3scnc3C)CC1)O2` | 17.28 |
| `Cc1nnc(N2CCNCC2)c(C(N)=O)c1C` | -41.81 |
| `O=C1CC[C@H](C(=O)Nc2cnn(-c3ccccc3Br)c2)N1` | -14.19 |
| `CC(=O)N1CCCN(C(=O)NC(C)Cn2cccn2)CC1` (stereo unspecified) | -22.75 |
| `COCCN1CCC(NCc2cccc(C)c2)C1` (stereo unspecified) | -14.49 |
| `O=S(=O)(N1CCN(CC2CC2)CC1)N1CCCC1c1ccco1` (stereo unspecified) | 7.269 and -0.8365 |
| `[H][C@@]12OCCN(C(=O)C3=CCCC3)[C@@]1([H])CC[C@@H]2OCC1CC1` | 7.309 |
| `Cc1cc(NC(=O)CN2CCCC2c2noc(C3CC3)n2)no1` (stereo unspecified) | 3.589 and 2.398 |
| `CC(NC(=O)NCC(F)(F)F)c1nncn1C` (stereo unspecified) | 4.151 |
| `CCCn1ncc(C(=O)N(Cc2cccnc2)C[C@@H]2CCC(=O)N2)c1C` | 12.49 |
| `COc1ccc(-n2c(SCC(=O)O)nnc2-c2cn[nH]c2)cc1` | -8.598 |
| `CCOC(=O)NCCC(=O)NCc1ccnc(Oc2ccc(F)cc2)c1` | -6.296 and 2.231 |
| `Cc1csc2c(=O)n3c(nc12)CCN(C(=O)c1ccnn1C)CC3` | 28.03 |
| `Cn1ccc2c(-c3cc(N)nc(N4CCOCC4)n3)ccnc21` | 8.933 |
| `CC(=O)N1CCC(NC(=O)c2cc(S(N)(=O)=O)ccc2C)CC1` | 1.225 |
| `Cn1cc(NS(=O)(=O)c2ccc(OC(F)(F)F)cc2)ccc1=O` | -40.99 |
| `CC(NC(=O)c1ccnn1C)c1ccc(OCC2CC2)c(F)c1` (stereo unspecified) | 4.87 |
| `Cc1sc2c(C3CCCN(S(C)(=O)=O)C3)nc(C)n2c1C` (stereo unspecified) | 14.6 |
| `CN(c1ncccc1CNS(=O)(=O)N1CCOCC1)C1CCCCC1` | -7.41 |
| `CCn1nc(C)c2nc(C)nc(NCCc3ccc(C)cc3)c21` | 30.52 and 53.23 |
| `Cc1cc(C)n(C2CN(c3ncnc4c3CCC4)C2)n1` | 1.835 and 0.8816 |
| `CN(CCn1nc2ccccn2c1=O)CC(=O)N1CCCC1` | -7.197 and 2.081 |
| `CCOC(=O)N1CCN(C(=O)c2cc(OCC)c3ccoc3c2)CC1` | 26.38 |

From ChEMBL document CHEMBL3988442, “University of Dundee, Small-Polar-MMV Screening Library” (2021).